For the test, the target named is human Fibroblast Growth Factor Receptor 3 (FGFR3), FGFR3 (gene 2261) (UniProt P22607). The test is described as follows: NVS_ENZ_hFGFR3: NovaScreen (NVS) Enzymatic Assay for human Fibroblast Growth Factor Receptor 3 (FGFR3). As for the experimental part: NVS_ENZ_hFGFR3 is a biochemical, single-readout assay that uses extracted gene-proteins in a cell-free assay. Measurements were taken 1 hour after chemical dosing in a 384-well plate.NVS_ENZ_hFGFR3 is one of one assay component(s) measured or calculated from the NVS_ENZ_hFGFR3 assay. It is designed to make measurements of enzyme activity, a form of enzyme reporter, as detected with fluorescence intensity signals by Fluorescence and electrophoretic mobility shift technology.Data from the assay component NVS_ENZ_hFGFR3 was analyzed into 1 assay endpoint. This assay endpoint, NVS_ENZ_hFGFR3, was analyzed in the positive analysis fitting direction relative to DMSO as the negative control and baseline of activity. Using a type of enzyme reporter, loss-of-signal activity can be used to understand changes in the enzymatic activity as they relate to the gene FGFR3. Furthermore, this assay endpoint can be referred to as a primary readout, because this assay has produced multiple assay endpoints where this one serves a enzymatic activity function. To generalize the intended target to other relatable targets, this assay endpoint is annotated to the kinase intended target family, where the subfamily is receptor tyrosine kinase. […]

Sequences of proteins named here, by UniProt entry; tags and fusion partners are left off.
UniProt P22607, whole entry, looked up: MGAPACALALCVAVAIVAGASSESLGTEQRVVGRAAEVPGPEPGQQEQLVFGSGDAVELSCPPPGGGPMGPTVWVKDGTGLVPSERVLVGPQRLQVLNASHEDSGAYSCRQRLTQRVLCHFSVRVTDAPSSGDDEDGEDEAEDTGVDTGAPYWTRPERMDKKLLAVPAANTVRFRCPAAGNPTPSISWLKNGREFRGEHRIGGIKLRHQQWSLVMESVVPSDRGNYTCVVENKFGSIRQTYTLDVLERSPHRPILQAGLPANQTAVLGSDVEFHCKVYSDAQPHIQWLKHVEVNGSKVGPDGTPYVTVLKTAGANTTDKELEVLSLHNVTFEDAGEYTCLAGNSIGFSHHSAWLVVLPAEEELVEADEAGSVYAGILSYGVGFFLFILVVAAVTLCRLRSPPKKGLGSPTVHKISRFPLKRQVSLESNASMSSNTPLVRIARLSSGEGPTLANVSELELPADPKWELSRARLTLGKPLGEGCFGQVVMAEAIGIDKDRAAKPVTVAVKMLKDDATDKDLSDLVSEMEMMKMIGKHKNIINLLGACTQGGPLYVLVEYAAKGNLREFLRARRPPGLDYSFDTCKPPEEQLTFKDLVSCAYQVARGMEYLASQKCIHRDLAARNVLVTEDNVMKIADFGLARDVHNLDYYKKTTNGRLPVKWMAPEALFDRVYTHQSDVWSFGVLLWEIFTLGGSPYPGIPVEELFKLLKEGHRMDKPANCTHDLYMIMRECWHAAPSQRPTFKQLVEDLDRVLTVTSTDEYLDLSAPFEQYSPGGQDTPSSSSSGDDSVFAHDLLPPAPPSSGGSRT

The entries are a selection whose mix differs from that of the whole data set. Inconclusive results are not listed. Active and inactive are the calls of the source. Rule for the calls: active = hit-call score of the fitted dose curve at least 0.9, where 1 is the maximum; inconclusive = response in the unintended direction; inactive = score below 0.9.

On to `O=S(=O)(O)C(F)(F)C(F)(F)C(F)(F)C(F)(F)C(F)(F)C(F)(F)C(F)(F)C(F)(F)F`, for which the AC50 was active: 38.4 µM.

Broadly, the AC50 is the concentration at which the activity in the assay is half-maximal.

The values above are taken from PubChem BioAssay AID2283160 (EPA ToxCast).
